Results are given in words; binding and its absence hold for the method and conditions named.
Target: OsWRKY55 (rice (Oryza sativa japonica cv Kitaake))
Assay: two-hybrid; BD-OsWRKY55 (pGBKT7) as bait, AD-OsMPK (pGADT7) as prey, Y2H Gold yeast; growth on SD/-Trp-Leu-His plates containing 0, 0.2 or 0.4 mM 3-AT at 30 °C for 3 days; the bait auto-activates at 0 mM 3-AT

B1: OsMPK3 (enzyme, UniProt Q10N20 1-369)
chain: MDGAPVAEFRPTMTHGGRYLLYDIFGNKFEVTNKYQPPIMPIGRGAYGIVCSVMNFETREMVAIKKIANAFNNDMDAKRTLREIKLLRHLDHENIIGIRDVIPPPIPQAFNDVYIATELMDTDLHHIIRSNQELSEEHCQYFLYQILRGLKYIHSANVIHRDLKPSNLLLNANCDLKICDFGLARPSSESDMMTEYVVTRWYRAPELLLNSTDYSAAIDVWSVGCIFMELINRQPLFPGRDHMHQMRLITEVIGTPTDDELGFIRNEDARKYMRHLPQYPRRTFASMFPRVQPAALDLIERMLTFNPLQRITVEEALDHPYLERLHDIADEPICLEPFSFDFEQKALNEDQMKQLIFNEAIEMNPNIRY
With B1 the binding was “no binding”.
